Experimental data reported in the supplement of paper PMC4604168 (melanoma cell lines).
Some of the results follow. Repeats are few or missing, and single values can be far off.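 Cells were imaged in 1,536-well plates, and nuclei stained with an antibody against cleaved PARP were counted against all DNA-stained nuclei to give the apoptosis fraction. Screening doses were chosen to leave most cells alive, and resting and induced cleaved-PARP levels differ strongly between cell lines.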

Legend:
Experiment in all cases: cleaved PARP positive nuclei fraction relative to DMSO control; melanoma cells; higher = more apoptosis
Settings in all cases: library dose: low library concentration; 72 h
[1] = system: MZ2-MEL
[2] = system: MeWo
[3] = system: RPMI7951
[4] = system: RVH-421
[5] = system: SkMel28
[6] = system: SkMel2
[7] = system: SkMel30
[8] = system: SkMel5
[9] = system: UACC257
[10] = system: UACC62
[11] = system: WM115
[12] = system: WM1716
[13] = system: WM1745
[14] = system: WM3526
[15] = system: WM3619
[16] = system: WM451Lu

| SMILES | cleaved PARP positive nuclei fraction [1] | cleaved PARP positive nuclei fraction [2] | cleaved PARP positive nuclei fraction [3] | cleaved PARP positive nuclei fraction [4] | cleaved PARP positive nuclei fraction [5] | cleaved PARP positive nuclei fraction [6] | cleaved PARP positive nuclei fraction [7] | cleaved PARP positive nuclei fraction [8] | cleaved PARP positive nuclei fraction [9] | cleaved PARP positive nuclei fraction [10] | cleaved PARP positive nuclei fraction [11] | cleaved PARP positive nuclei fraction [12] | cleaved PARP positive nuclei fraction [13] | cleaved PARP positive nuclei fraction [14] | cleaved PARP positive nuclei fraction [15] | cleaved PARP positive nuclei fraction [16] |
| --- | --- | --- | --- | --- | --- | --- | --- | --- | --- | --- | --- | --- | --- | --- | --- | --- |
| CS(=O)(=O)CCNCc1ccc(-c2ccc3ncnc(Nc4ccc(OCc5cccc(F)c5)c(Cl)c4)c3c2)o1 [lapatinib] + Oc1cc(-c2nc(-c3ccccc3)[nH]c2-c2ccncc2)ccc1Cl [L779450] (first compound 0.8 µM, partner dose 0.2 µM) | 166% | 20.6% | 62.6% | 60.3% | 134% | 38.6% | 39.5% | 71.7% | 106% | 97.6% | 124% | 65% | 95.6% | 47.3% | 123% | 128% |
| Nc1ccn([C@@H]2O[C@H](CO)[C@@H](O)C2(F)F)c(=O)n1 [gemcitabine] + O=C(O)c1ccc(-c2c[nH]c3ncc(-c4ccccc4)cc23)cc1C1CCCC1 [GSK650394] (first compound 0.0004 µM, partner dose 0.16 µM) | 190% | 85.4% | 178% | 64.2% | 91.8% | 106% | 46% | 25% | 54.2% | 25.9% | 39.6% | 71.1% | 228% | 77.5% | 133% | 24.4% |
| Nc1ncn([C@H]2C[C@H](O)[C@@H](CO)O2)c(=O)n1 [decitabine] + CO[C@@H]1[C@H](N(C)C(=O)c2ccccc2)C[C@H]2O[C@]1(C)n1c3ccccc3c3c4c(c5c6ccccc6n2c5c31)C(=O)NC4 [Midostaurin] (first compound 0.1 µM, partner dose 0.08 µM) | 65.5% | 169% | 117% | 130% | 301% | 142% | 51% | 668% | 100% | 86% | 142% | 184% | 108% | 75.3% | 112% | 67.3% |
| Nc1ncn([C@H]2C[C@H](O)[C@@H](CO)O2)c(=O)n1 [decitabine] + Cc1cc(N2CCOCC2)cc2[nH]c(-c3c(NC[C@@H](O)c4cccc(Cl)c4)cc[nH]c3=O)nc12 [BMS536924] (first compound 0.1 µM, partner dose 0.2 µM) | 49.5% | 153% | 213% | 136% | 90.6% | 119% | 66.7% | 72.9% | 122% | 104% | 123% | 86.6% | 116% | 55.2% | 101% | 57.9% |
| O=C(O)c1ccc2c(c1)nc(Nc1cccc(Cl)c1)c1ccncc12 + COc1cc2c(Oc3ccc4[nH]c(C)cc4c3F)ncnc2cc1OCCCN1CCCC1 [cediranib] (first compound 0.4 µM, partner dose 0.4 µM) | 143% | 111% | 87.7% | 77.8% | 55.1% | 92.8% | 83.8% | 134% | 109% | 74% | 118% | 125% | 93.4% | 36.1% | 92.5% | 134% |
| CN1CCN(c2ccc3nc(-c4c(N)c5c(F)cccc5[nH]c4=O)[nH]c3c2)CC1 [Dovitinib] + COc1cc2ncnc(Nc3ccc(Oc4ccccc4)cc3)c2cc1OC [SrcI1] (first compound 0.1 µM, partner dose 2 µM) | 154% | 140% | 58.3% | 167% | 196% | 40.9% | 37.4% | 85.2% | 31.6% | 66.9% | 93.2% | 160% | 92.3% | 73.5% | 72.4% | 68.9% |
| C[C@@H](Oc1cc(-c2cnn(C3CCNCC3)c2)cnc1N)c1c(Cl)ccc(F)c1Cl [Crizotinib] + N#Cc1c(O)c2c(-c3ccc(-c4ccccc4O)cc3)csc2[nH]c1=O [A769662] (first compound 0.2 µM, partner dose 2 µM) | 119% | 116% | 55.9% | 222% | 54.7% | 96.7% | 201% | 73.1% | 66.1% | 61.2% | 75% | 57.3% | 90% | 26.9% | 82.2% | 20.4% |
| CCCS(=O)(=O)Nc1ccc(F)c(C(=O)c2c[nH]c3ncc(Cl)cc23)c1F + C=CCn1c(=O)c2cnc(Nc3ccc(N4CCN(C)CC4)cc3)nc2n1-c1cccc(C(C)(C)O)n1 [MK1775] (first compound 0.08 µM, partner dose 0.02 µM) | 45.2% | 75.5% | 83.9% | 99.7% | 119% | 68.9% | 70.5% | 141% | 193% | 295% | 127% | 75.6% | 112% | 94.6% | 97.5% | 63.7% |
| CNC(=O)c1cc(Oc2ccc(NC(=O)Nc3ccc(Cl)c(C(F)(F)F)c3)cc2)ccn1 [sorafenib] + O=C1NC(=O)/C(=C/c2ccc(-c3ccc(F)cc3O)o2)S1 [AS252424] (first compound 0.4 µM, partner dose 1 µM) | 146% | 95.2% | 81% | 51.6% | 149% | 114% | 52% | 156% | 235% | 29.5% | 109% | 175% | 97.8% | 75.4% | 103% | 34.5% |
| C[C@@H](Oc1cc(-c2cnn(C3CCNCC3)c2)cnc1N)c1c(Cl)ccc(F)c1Cl [Crizotinib] + Cc1ccc(NC(=O)c2cccc(N(C)C)c2)cc1NC(=O)c1ccc(O)cc1 [ZM336372] (first compound 0.2 µM, partner dose 2 µM) | 55.3% | 52.1% | 48.3% | 103% | 60.2% | 101% | 76.8% | 82.4% | 67.5% | 123% | 81% | 71.7% | 109% | 169% | 90.7% | 168% |
| Nc1ccn([C@@H]2O[C@H](CO)[C@@H](O)C2(F)F)c(=O)n1 [gemcitabine] + C=CCn1c(=O)c2cnc(Nc3ccc(N4CCN(C)CC4)cc3)nc2n1-c1cccc(C(C)(C)O)n1 [MK1775] (first compound 0.0004 µM, partner dose 0.02 µM) | 144% | 106% | 107% | 86.8% | 41.6% | 119% | 245% | 88.3% | 69.5% | 207% | 120% | 179% | 240% | 405% | 160% | 84.3% |
| O=C(O)[C@@H]1[O][Sb](=[O])([O][Sb]2(=[O])[O][C@H]([C@H](O)CO)[C@H](O)[C@H](C(=O)O)[O]2)[O][C@H]([C@H](O)CO)[C@@H]1O (stereo partly drawn) [stibogluconate] + Cc1cc(N2CCOCC2)cc2[nH]c(-c3c(NC[C@@H](O)c4cccc(Cl)c4)cc[nH]c3=O)nc12 [BMS536924] (first compound 2 µM, partner dose 0.2 µM) | 94% | 77.3% | 107% | 71.9% | 83.4% | 103% | 69.1% | 102% | 164% | 303% | 47.1% | 21% | 101% | 255% | 99.9% | 114% |
| CC(C)C[C@H](NC(=O)[C@H](Cc1ccccc1)NC(=O)c1cnccn1)B(O)O [Bortezomib] + CO[C@@H]1[C@H](N(C)C(=O)c2ccccc2)C[C@H]2O[C@]1(C)n1c3ccccc3c3c4c(c5c6ccccc6n2c5c31)C(=O)NC4 [Midostaurin] (first compound 0.001 µM, partner dose 0.08 µM) | 210% | 103% | 82.7% | 44.5% | 52.9% | 147% | 60.7% | 97.3% | 163% | 51.2% | 83.4% | 551% | 171% | 116% | 441% | 360% |
| CNC(=O)c1cc(Oc2ccc(NC(=O)Nc3ccc(Cl)c(C(F)(F)F)c3)cc2)ccn1 [sorafenib] + COc1ccc(COc2ccc(Cc3cnc(N)nc3N)cc2OC)cc1 [GW2580] (first compound 0.4 µM, partner dose 1 µM) | 89% | 23.1% | 139% | 116% | 128% | 144% | 124% | 92.9% | 144% | 130% | 66.3% | 106% | 87.5% | 69.7% | 96.6% | 64.3% |
| Cc1cc(Nc2cc(N3CCN(C)CC3)nc(/C=C/c3ccccc3)n2)n[nH]1 + CC(C)(C)c1cnc(CSc2cnc(NC(=O)C3CCNCC3)s2)o1 [SNS-032] (first compound 0.04 µM, partner dose 0.01 µM) | 142% | 44.6% | 22.9% | 114% | 125% | 68.6% | 58.4% | 83.9% | 255% | 198% | 64.5% | 183% | 102% | 166% | 118% | 32.8% |
| CNC(=O)c1cc(Oc2ccc(NC(=O)Nc3ccc(Cl)c(C(F)(F)F)c3)cc2)ccn1 [sorafenib] + O=C(Nc1ccccc1)c1cc([N+](=O)[O-])ccc1Cl [GW9662] (first compound 0.4 µM, partner dose 2 µM) | 48.6% | 102% | 67% | 150% | 22.8% | 107% | 193% | 229% | 20.4% | 138% | 71.9% | 74.8% | 189% | 59.3% | 88.3% | 69.7% |
| CCCS(=O)(=O)Nc1ccc(F)c(C(=O)c2c[nH]c3ncc(Cl)cc23)c1F + COc1ccc(-c2ccc3c(N4CCOCC4)nc(N4C[C@@H](C)O[C@@H](C)C4)nc3n2)cc1CO [KU0063794] (first compound 0.08 µM, partner dose 0.02 µM) | 472% | 62% | 123% | 179% | 118% | 426% | 55.6% | 33.2% | 137% | 176% | 58.9% | 21% | 147% | 48.3% | 105% | 48% |
| O=C(O)c1ccc2c(c1)nc(Nc1cccc(Cl)c1)c1ccncc12 + COc1ccc(-c2ccc3c(N4CCOCC4)nc(N4C[C@@H](C)O[C@@H](C)C4)nc3n2)cc1CO [KU0063794] (first compound 0.4 µM, partner dose 0.02 µM) | 113% | 108% | 72.3% | 93.6% | 61.3% | 55.7% | 43.5% | 183% | 184% | 155% | 108% | 74% | 97.4% | 79.4% | 83.6% | 78.8% |

Full records, quoted from the list. Values in the order: cleaved PARP positive nuclei fraction [1]	cleaved PARP positive nuclei fraction [2]	cleaved PARP positive nuclei fraction [3]	cleaved PARP positive nuclei fraction [4]	cleaved PARP positive nuclei fraction [5]	cleaved PARP positive nuclei fraction [6]	cleaved PARP positive nuclei fraction [7]	cleaved PARP positive nuclei fraction [8]	cleaved PARP positive nuclei fraction [9]	cleaved PARP positive nuclei fraction [10]	cleaved PARP positive nuclei fraction [11]	cleaved PARP positive nuclei fraction [12]	cleaved PARP positive nuclei fraction [13]	cleaved PARP positive nuclei fraction [14]	cleaved PARP positive nuclei fraction [15]	cleaved PARP positive nuclei fraction [16]
CNC(=O)c1cc(Oc2ccc(NC(=O)Nc3ccc(Cl)c(C(F)(F)F)c3)cc2)ccn1 [sorafenib] + O=C(Nc1ccccc1)c1cc([N+](=O)[O-])ccc1Cl [GW9662] (first compound 0.4 µM, partner dose 2 µM) reads 48.6%	102%	67%	150%	22.8%	107%	193%	229%	20.4%	138%	71.9%	74.8%	189%	59.3%	88.3%	69.7%
O=C(O)[C@@H]1[O][Sb](=[O])([O][Sb]2(=[O])[O][C@H]([C@H](O)CO)[C@H](O)[C@H](C(=O)O)[O]2)[O][C@H]([C@H](O)CO)[C@@H]1O (stereo partly drawn) [stibogluconate] + Cc1cc(N2CCOCC2)cc2[nH]c(-c3c(NC[C@@H](O)c4cccc(Cl)c4)cc[nH]c3=O)nc12 [BMS536924] (first compound 2 µM, partner dose 0.2 µM) reads 94%	77.3%	107%	71.9%	83.4%	103%	69.1%	102%	164%	303%	47.1%	21%	101%	255%	99.9%	114%
